From PubChem BioAssay AID2685 (National Center for Advancing Translational Sciences (NCATS), 2010)
The other results are listed elsewhere or left out. The main result of the screen is listed elsewhere. These columns were measured beside it and carry no call. Compounds called inactive in the main read-out are mostly missing here. Words in brackets tell the shape of the fitted curve; partial curves, single points and poor fits give uncertain potencies.

Test: qHTS Assay for Lipid Storage Modulators in Drosophila S3 Cells;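 for cell number change: cells counted by Cell Tracker Red CMTPX staining in the red channel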
Conditions: BODIPY lipid droplet fluorescence, 18-24 h; for cell number change: measured here: cell count max response, cells fed with added oleic acid
Method in brief: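 Laser-scanning cytometry quantifies lipid droplet accumulation (500–530 nm total intensity; droplet/cell object ratio) in oleic acid-fed (400 uM added) Drosophila S3 cells treated with a concentration series. 20 uM Triacsin C defined 100% inhibition.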

[1] = measured here: lipid fluorescence (Fed channel) AC50, cells fed with added oleic acid
[2] = measured here: cell number channel AC50, cells fed with added oleic acid

O=C(c1cc(NC(=O)C23CC4CC(CC(C4)C2)C3)cc(NC(=O)C23CC4CC(CC(C4)C2)C3)c1)N1CCCCC1
cell number change: -12.9% | AC50 [1]: 4.11 µM [falling, full curve, poor fit]

Cc1ccc(-n2nc(C)c3c2OC(N)=C(C#N)C3c2ccncc2)cc1 (centres undefined)
cell number change: -0.544%

Cc1ccccc1CNC(=O)c1ccccc1
cell number change: 3.71% | AC50 [1]: 0.58 µM [rising, single point]

CSC1=NC(C)(C)C=C(/C=C/c2ccc(Cl)cc2Cl)N1
cell number change: -4.56%

CC(C)=C1SC(N2CCN(c3ccc(C)c(Cl)c3)CC2)=NC1=O
cell number change: 4.16% | AC50 [1]: 0.517 µM [rising, full curve]

COc1cccc(-n2cnnc2SCC(=O)NC2CC2)c1
cell number change: -4.4% | AC50 [1]: 0.731 µM [falling, full curve, poor fit]

CN(C)c1ccc2nsnc2c1[N+](=O)[O-]
cell number change: 17.7%

Clc1ccccc1/C=C/C=N/Nc1nc(N2CCOCC2)nc(N2CCOCC2)n1
cell number change: -5.35%

CCC(=O)NC(=S)Nc1ccc(NC(=O)COc2ccc(Cl)c(C)c2)cc1
cell number change: 27.2% | AC50 [1]: 29.1 µM [rising, single point]

CCOc1ccc(NC(=O)c2[nH]c(C)c(C(C)=O)c2C)cc1
cell number change: -23.4% | AC50 [2]: 4.11 µM [falling, single point]

O=S(=O)(Nc1ccc(N2CCOCC2)cc1)c1cc(Cl)ccc1Cl
cell number change: -15.8%

COc1ccc(N2CC(C(=O)OCC(=O)Nc3ccccc3C)CC2=O)cc1 (centres undefined)
cell number change: -10.4% | AC50 [1]: 0.13 µM [falling, full curve, poor fit]

Cc1ccc(OCCNS(=O)(=O)c2cccs2)cc1
cell number change: -40.5% | AC50 [2]: 11.6 µM [falling, partial curve] | AC50 [1]: 16.4 µM [falling, single point]

C[C@H](NS(=O)(=O)c1ccc2c(c1)OCCCO2)C(=O)N1CCN(c2ccc(F)cc2)CC1
cell number change: -7.9% | AC50 [2]: 0.103 µM [falling, full curve, poor fit]

CCOc1cccc(OCCCOc2ccccc2)c1
cell number change: -2.87% | AC50 [1]: 6.51 µM [falling, single point]

O=[N+]([O-])c1ccc(/C=C/c2ccc3ccccc3n2)cc1
cell number change: -13.1% | AC50 [2]: 6.51 µM [rising, single point]

Cc1cc(C)c(S(=O)(=O)N2CCN(C(=O)C3COc4ccccc4O3)CC2)c(C)c1 (centres undefined)
cell number change: 0.125% | AC50 [1]: 0.259 µM [falling, full curve, poor fit]

COc1ccc(NC(=O)CNC(=O)C2CCCCC2)cc1
cell number change: -1.49% | AC50 [1]: 29.1 µM [rising, single point]

Nc1c2c(nn1-c1ccc(F)cc1)CSC2
cell number change: 38.2% | AC50 [2]: 20.6 µM [rising, partial curve, poor fit] | AC50 [1]: 16.4 µM [rising, single point]

CCC(CC)C(=O)c1c[nH]c(C(=O)NCCc2ccccn2)c1
cell number change: 75% | AC50 [1]: 29.1 µM [rising, single point]

CCOc1ccccc1Nc1ncnc2c1cnn2-c1ccccc1
AC50 [2]: 3.26 µM [rising, partial curve]

O=C1Nc2ccccc2S/C1=C\C(=O)N1CCCC1
AC50 [2]: 6.51 µM [rising, single point] | AC50 [1]: 3.66 µM [falling, single point]

O=C(NCCOc1ccccc1F)c1cc(F)c(F)cc1Cl
cell number change: 8.65% | AC50 [1]: 0.411 µM [rising, partial curve]

OCCCNc1cc(-c2ccccc2)nc2cc(-c3ccc(F)cc3)nn12
cell number change: 5.28% | AC50 [1]: 0.184 µM [rising, full curve, poor fit]

CCN(C(=O)CSc1ccc2ccccc2n1)C1CCS(=O)(=O)C1 (centres undefined)
cell number change: 46.4% | AC50 [2]: 0.517 µM [rising, full curve]

COC(=O)c1c(C)[nH]c(C(=O)/C=C/c2ccccc2)c1C
cell number change: 5.87% | AC50 [1]: 0.058 µM [rising, full curve, poor fit]

Cc1ccc(S(=O)(=O)N2CCCC2C(=O)Nc2cc(C)on2)cc1 (centres undefined)
cell number change: -7.16%

CCN(CC)c1ccc(S(=O)(=O)N2CCOCC2)cc1NC(=O)CSc1nncs1
AC50 [2]: 6.51 µM [falling, single point] | AC50 [1]: 1.46 µM [falling, full curve]

Cc1ccc2c(c1)N(CC(=O)NCC(C)c1ccccc1)C(=O)c1cccnc1O2 (centres undefined)
cell number change: -11%

Brc1ccc(CN2CC[C@H]3C=CCc4cccc(c43)C2)cc1
cell number change: -30.8% | AC50 [2]: 20.6 µM [falling, single point] | AC50 [1]: 29.1 µM [falling, single point]

O=C(CCCOc1ccccc1)Nc1ccc(Cl)cn1
cell number change: 22.3% | AC50 [1]: 0.82 µM [falling, full curve, poor fit]

CSc1nnc(N2C(=O)C(O)=C(C(=O)c3ccco3)C2c2ccccc2)s1 (centres undefined)
cell number change: 11.5% | AC50 [1]: 0.58 µM [rising, single point]
